Binding data for four molecules are collected here from US20190203248A1 (Bristol-Myers Squibb, published 2019).

Chains of the proteins cited; added tags and fusions are not shown. Lines headed by an entry give the natural chain unless they say otherwise; changes in a name come on top. Residues count along the entry.
UniProt P02768: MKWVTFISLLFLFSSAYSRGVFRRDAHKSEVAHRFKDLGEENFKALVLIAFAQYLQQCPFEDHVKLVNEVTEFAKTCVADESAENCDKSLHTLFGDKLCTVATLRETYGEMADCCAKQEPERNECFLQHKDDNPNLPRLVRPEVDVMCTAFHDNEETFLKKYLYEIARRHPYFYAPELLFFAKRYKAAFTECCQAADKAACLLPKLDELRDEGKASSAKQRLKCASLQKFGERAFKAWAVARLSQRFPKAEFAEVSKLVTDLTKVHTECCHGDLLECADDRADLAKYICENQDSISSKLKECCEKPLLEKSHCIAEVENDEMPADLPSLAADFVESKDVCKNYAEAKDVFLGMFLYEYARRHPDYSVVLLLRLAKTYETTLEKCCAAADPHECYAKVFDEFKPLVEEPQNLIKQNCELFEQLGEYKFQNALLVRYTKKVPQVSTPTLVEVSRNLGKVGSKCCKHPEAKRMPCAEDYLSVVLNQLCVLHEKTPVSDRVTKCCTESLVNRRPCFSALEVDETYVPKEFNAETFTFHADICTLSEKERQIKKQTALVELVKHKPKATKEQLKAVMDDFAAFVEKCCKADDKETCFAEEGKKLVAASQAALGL
HSA-domain I-II construct: residues 25-411 of P02768
UniProt Q28522, residues 17-600: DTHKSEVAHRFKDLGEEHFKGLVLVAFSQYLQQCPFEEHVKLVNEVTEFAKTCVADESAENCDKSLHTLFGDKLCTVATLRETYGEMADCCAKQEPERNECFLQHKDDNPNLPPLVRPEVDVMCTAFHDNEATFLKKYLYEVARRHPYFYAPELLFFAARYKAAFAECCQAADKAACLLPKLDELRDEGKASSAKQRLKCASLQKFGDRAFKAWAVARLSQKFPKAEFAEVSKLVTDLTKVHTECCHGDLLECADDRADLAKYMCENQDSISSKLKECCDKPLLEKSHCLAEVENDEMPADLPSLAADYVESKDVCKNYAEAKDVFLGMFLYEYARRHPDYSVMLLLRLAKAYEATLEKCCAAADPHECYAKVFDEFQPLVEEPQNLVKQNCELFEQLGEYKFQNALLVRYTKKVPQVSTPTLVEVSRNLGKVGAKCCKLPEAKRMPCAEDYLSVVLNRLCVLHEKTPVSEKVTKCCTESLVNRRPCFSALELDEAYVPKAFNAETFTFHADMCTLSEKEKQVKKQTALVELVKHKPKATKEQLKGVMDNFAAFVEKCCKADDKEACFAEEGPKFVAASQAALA

Results are given in words; binding and its absence hold for the method and conditions named. Some entries that bind do so weakly or less than the wild type.

In test [1] the target is HSA-domain I-II construct (human) (UniProt P02768). Description: Biacore domain mapping, construct immobilized. Background: In SPR one partner is held on a chip, and binding of the other changes the refractive index at the surface.
For test [2] the target is unchanged. Description: Biacore (SPR), binding level in RU at 100 nM and 1000 nM on immobilized recombinant HuSA domain I & II fragment.
For a further test, the target named is T1, human serum albumin (human, UniProt P02768 25-609).
T1 construct: also called HSA; HuSA
Nature of the test: Biacore domain mapping, HSA immobilized.

Test [3] has as its target T2, rhesus serum albumin (rhesus, UniProt Q28522 17-600).
T2 construct: also called RhSA
Nature of the test: comment in summary table.

The target in test [4] is T2, rhesus serum albumin. Description: SPR (Biacore), albumin immobilized on CM5 chip.

B1: SABA1.1 (designed binder)
chain: MGVSDVPRDLEVVAATPTSLLISWHSYYEQNSYYRITYGETGGNSPVQEFTVPYSQTTATISGLKPGVDYTITVYAVYGSKYYYPISINYRTEIDKPSQHHHHHH
B1: the binding entry in test [1] was “binds”.

B2: SABA1.2 (designed binder)
chain: MGVSDVPRDLEVVAATPTSLLISWHSYYEQNSYYRITYGETGGNSPVQEFTVPYSQTTATISGLKPGVDYTITVYAVYGSKYYYPISINYRTEIEDEDEDEDED
notes: also called core 1 10Fn3 comprising an (ED)5 extension
Take B2: the binding result in test [2] is “binds”.

B3: SABA2.1 (designed binder)
chain: MGVSDVPRDLEVVAATPTSLLISWPKYDKTGHYYRITYGETGGNSPVQEFTVPTRQTTATISGLKPGVDYTITVYAVSKDDYYPHEHRPISINYRTEIDKPSQHHHHHH
notes: His6-tagged Adnectin core 2
As for B3, in test [1], the binding result is given as “binds”.

B4: SABA4.1 (designed binder)
chain: MGVSDVPRDLEMVAATPTSLLISWEDDSYYSRYYRITYGETGGNSPVQEFTVPSDLYTATISGLKPGVDYTITVYAVTYDVTDLIMHEPISINYRTEIDKPSQHHHHHH
notes: His6-tagged Adnectin core 4; has a scaffold mutation; the scaffold-perfect version is SABA5
As to B4, the binding entry in the test with human serum albumin, with rhesus serum albumin [3] and with rhesus serum albumin [4] was “binds” throughout.
